Laboratory results taken from publication PMC3162602, “Laforin, a Dual Specificity Phosphatase Involved in Lafora Disease, Is Present Mainly as Monomeric Form with Full Phosphatase Activity” (PLoS ONE, 2011).
These are yes or no findings as the source states them, for the method shown. Binding seen in cells or lysates may run through a third protein. Some results given as binding are weak or reduced against the parent protein; the word gives no strength. Where a sequence is shown, tags or fusion partners need not be part of it.

T1: FLAG-malin (human) (UniProt Q6VVB1)
T1 sequence: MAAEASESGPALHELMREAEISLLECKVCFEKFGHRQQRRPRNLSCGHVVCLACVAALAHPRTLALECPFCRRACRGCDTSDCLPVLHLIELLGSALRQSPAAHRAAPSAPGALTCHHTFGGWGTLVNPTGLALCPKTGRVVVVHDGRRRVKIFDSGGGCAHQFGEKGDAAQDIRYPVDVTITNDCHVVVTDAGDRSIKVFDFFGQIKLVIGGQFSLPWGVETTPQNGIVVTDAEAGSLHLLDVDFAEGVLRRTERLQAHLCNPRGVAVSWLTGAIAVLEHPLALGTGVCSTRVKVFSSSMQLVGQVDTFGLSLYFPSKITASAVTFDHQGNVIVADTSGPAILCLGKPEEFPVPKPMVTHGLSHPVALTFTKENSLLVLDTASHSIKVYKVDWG


Biological target: T1, FLAG-malin (human)
Assay: co-IP; FLAG-malin immunoprecipitated from HEK293 lysate on anti-FLAG M2 agarose, washed twice with modified RIPA buffer, then incubated with purified laforin monomer or dimer for 1 hr at 4°C; washed, eluted, blotted for laforin and FLAG; only the binder purified

Row | binding | Binder
1 | binds | Hs-laforin-HIS6 (enzyme, UniProt O95278 1-331) MRFRFGVVVPPAVAGARPELLVVGSRPELGRWEPRGAVRLRPAGTAAGDGALALQEPGLWLGEVELAAEEAAQDGAEPGRVDTFWYKFLKREPGGELSWEGNGPHHDRCCTYNENNLVDGVYCLPIGHWIEATGHTNEMKHTTDFYFNIAGHQAMHYSRILPNIWLGSCPRQVEHVTIKLKHELGITAVMNFQTEWDIVQNSSGCNRYPEPMTPDTMIKLYREEGLAYIWMPTPDMSTEGRVQMLPQAVCLLHALLEKGHIVYVHCNAGVGRSTAAVCGWLQYVMGWNLRKVQYFLMAKRPAVYIDEEALARAQEDFFQKFGKVRSSVCSL
2 | binds | laforin dimer (peak A of Hs-laforin-HIS6) (complex, UniProt O95278 1-331) MRFRFGVVVPPAVAGARPELLVVGSRPELGRWEPRGAVRLRPAGTAAGDGALALQEPGLWLGEVELAAEEAAQDGAEPGRVDTFWYKFLKREPGGELSWEGNGPHHDRCCTYNENNLVDGVYCLPIGHWIEATGHTNEMKHTTDFYFNIAGHQAMHYSRILPNIWLGSCPRQVEHVTIKLKHELGITAVMNFQTEWDIVQNSSGCNRYPEPMTPDTMIKLYREEGLAYIWMPTPDMSTEGRVQMLPQAVCLLHALLEKGHIVYVHCNAGVGRSTAAVCGWLQYVMGWNLRKVQYFLMAKRPAVYIDEEALARAQEDFFQKFGKVRSSVCSL
